# This is one part of the list. Shown are side measurements of this screen, not its main read-out; they come without a call. Compounds called inactive in the main read-out are mostly missing here. Words in brackets tell the shape of the fitted curve; partial curves, single points and poor fits give uncertain potencies.
# Assay: qHTS Assay to Find Inhibitors of Chronic Active B-Cell Receptor Signaling
# Details: ABC-DLBCL IkBa-CBG/CBR reporter, luminescence ratio (green luciferase fused to IkBa over red control in TMD8 lymphoma cells), 4 h
# Summary of the method: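 Cell line TMD8 (human ABC DLBCL), stably expressing tet-inducible CBG68-IkBa fusion and CBR; IMDM/0.5% FBS; cpd up to 46 uM; dox induction, 4 h, 37C/5% CO2; dual luminescence; green/red ratio; MG132 control.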
# [1] = measured here: CBR red luminescence, cell number
# [2] = measured here: IkBa-CBG green luminescence
Structure (SMILES),AC50 [1],AC50 [2]
COc1ccc(-n2c(SCC(=O)N3CCOCC3)nnc2C(C)N2CCCCC2)cc1 (stereo not drawn),"5.01 µM [rising, single point]",
COc1ccc(C(=O)Nc2ccc3oc(Cc4ccc(Cl)cc4)nc3c2)cc1OC,"25.9 µM [falling, partial curve, poor fit]",
O=C(/C=C\Nc1ccccn1)c1ccccc1,"3.55 µM [falling, full curve]",
CC(=O)N1CCC(Nc2ccc(C)cc2)CC1,"14.6 µM [rising, single point]",
COC(=O)c1cn(C(=O)c2ccc(C)cc2)c2ccccc12,"2.24 µM [rising, partial curve, poor fit]",
C=CCn1c(Sc2ncc([N+](=O)[O-])s2)n[nH]c1=O,"20 µM [falling, single point]",
CCC(=O)NCCCCCCNC(=O)CC,"18.4 µM [rising, partial curve, poor fit]",
CN1C(=O)C2(OCC(COc3ccc(Cl)cc3)O2)c2ccccc21 (stereo not drawn),"0.82 µM [rising, full curve, poor fit]",
COc1cccc(CC(=O)N2CCN(c3ccccc3[N+](=O)[O-])CC2)c1,"11.2 µM [falling, partial curve, poor fit]",
CC(C)NS(=O)(=O)c1ccc(CCC(=O)Nc2cc(Cl)ccc2Oc2ccccc2)cc1,"29.1 µM [falling, single point]",
Nc1nonc1C(=O)N/N=C/c1ccc(-c2ccc(Cl)c(C(=O)O)c2)o1,"31.6 µM [falling, single point]",
CC(C)c1ccccc1OCCNC(=S)NC(=O)c1cccnc1,"35.5 µM [falling, single point]",
C=CCc1ccc(OCC(O)COCC)c(OC)c1 (stereo not drawn),"2.91 µM [rising, single point]",
Cn1cc(-c2nnnn2-c2cccc(C(F)(F)F)c2)c(C(F)(F)F)n1,"29.1 µM [falling, single point]",
CCc1ccc2oc(C(=O)Nc3nonc3C)c(C)c2c1,"12.6 µM [falling, single point]",
COc1ccnc(NCc2ccc(Cl)cc2)c1C#N,"1.3 µM [rising, full curve, poor fit]",
Cc1ccc(NC(=O)c2cnn(-c3ccccc3)c2C)cc1,"5.62 µM [rising, single point]",
COc1ccc(NC(=O)C2CCCN2S(=O)(=O)c2cccc3cccnc23)c(OC)c1 (stereo not drawn),"8.2 µM [rising, partial curve, poor fit]",
COc1cc2sc(C)nc2cc1C,"0.0891 µM [rising, full curve, poor fit]",
Cc1cc(C(=O)NNC(=O)c2ccccc2O)c(C)o1,"11.6 µM [falling, partial curve]",
NC(=O)c1cccnc1Oc1ccc(Cl)cc1,"0.178 µM [rising, full curve, poor fit]",
O=C(CS)Nc1ccc2ccccc2c1,"35.5 µM [falling, single point]",

Structure (SMILES),AC50 [1],AC50 [2]
Cc1[nH]nc2c1C1(CCN(C(=O)OCc3ccccc3)CC1)C(C#N)=C(N)O2,"3.66 µM [falling, partial curve]",
CCS(=O)(=O)NCCc1cc2ccc(C)cc2[nH]c1=O,"0.1 µM [rising, full curve, poor fit]",
C[C@H](CO)N1C[C@H](C)[C@@H](CN(C)S(=O)(=O)c2cn(C)cn2)Oc2c(NC(=O)Nc3ccc4c(c3)OCO4)cccc2C1=O,"0.00517 µM [rising, full curve, poor fit]",
CC(=O)c1sc(NC(=O)COc2ccc(C)c(C)c2)nc1C,"7.31 µM [falling, partial curve]",
Cc1[nH]nc2c1C(c1cccc(O)c1)C1=C(CC(C)(C)CC1=O)N2 (stereo not drawn),"35.5 µM [falling, single point]",
CN(c1ccccc1)c1nc(N)c([N+](=O)[O-])c(Nc2ccccc2F)n1,"12.6 µM [rising, single point]",
O=C(CSc1nc2scc(-c3ccccc3)c2c(=O)[nH]1)NC1CCCCC1,"3.55 µM [falling, single point]",
S=C1SCN(Cc2ccco2)CN1Cc1ccco1,"35.5 µM [falling, single point]","22.4 µM [falling, single point]"
COc1cc(/C=C/[N+](=O)[O-])ccc1OCc1cccc(C(=O)O)c1,"0.355 µM [falling, full curve]",
Cn1c(N)c(C#N)c2c(c1=S)COC(C)(C)C2,"5.8 µM [rising, single point]",
CCOC(=O)CS(=O)(=O)c1nc(-c2ccc(F)cc2)cc(C(F)(F)F)n1,"20.6 µM [falling, partial curve, poor fit]",
COc1ccc(CN2CCN(C(=O)CCC(=O)Nc3nnc(C4CCCCC4)s3)CC2)cc1F,"11.2 µM [rising, partial curve]",
O=C(Nc1nnc(C2CC2)s1)c1ccc(Cl)nc1,"16.4 µM [falling, partial curve, poor fit]",
Cc1cc(NC(=O)COc2ccccc2C#N)no1,"20.6 µM [rising, single point]",
COc1ccc(-c2nc(C#N)c(N3CCOCC3)o2)cc1OC,,"18.4 µM [falling, partial curve, poor fit]"
COc1ccc(C2C(C#N)=C(N)Oc3c2ccc2cccnc32)cc1OC (stereo not drawn),,"17.8 µM [falling, single point]"
Cc1nc2ccc(S(=O)(=O)Nc3cc(-c4nc5cccnc5s4)ccc3C)cc2s1,,"14.6 µM [falling, partial curve, poor fit]"
COc1ccc(NC2c3ccccc3C(=O)N2Cc2ccccc2Cl)cc1OC (stereo not drawn),"15.8 µM [falling, single point]",
Cc1cccc(C)c1NC(=S)NC(=O)CCc1ccccc1,"4.47 µM [falling, partial curve, poor fit]",
Cc1ccc(NC(=O)C2CC(=O)N(c3ccc4c(c3)OCCO4)C2)cc1S(=O)(=O)N(C)C (stereo not drawn),"1.64 µM [rising, full curve]",
Cc1cc(C)cc(C(=O)NCC(=O)OCc2nc(N)nc(Nc3ccccc3C)n2)c1,"25.9 µM [rising, single point]",
Cn1c(CN2CCCCC2)nc2cc(NC(=O)c3ccccc3)ccc21,"20.6 µM [falling, partial curve]",

# Molecules shown so far containing four or more nitrogen atoms (12):
Structure (SMILES),AC50 [1],AC50 [2]
COc1ccc(-n2c(SCC(=O)N3CCOCC3)nnc2C(C)N2CCCCC2)cc1 (stereo not drawn),"5.01 µM [rising, single point]",
C=CCn1c(Sc2ncc([N+](=O)[O-])s2)n[nH]c1=O,"20 µM [falling, single point]",
Nc1nonc1C(=O)N/N=C/c1ccc(-c2ccc(Cl)c(C(=O)O)c2)o1,"31.6 µM [falling, single point]",
Cn1cc(-c2nnnn2-c2cccc(C(F)(F)F)c2)c(C(F)(F)F)n1,"29.1 µM [falling, single point]",
Cc1[nH]nc2c1C1(CCN(C(=O)OCc3ccccc3)CC1)C(C#N)=C(N)O2,"3.66 µM [falling, partial curve]",
C[C@H](CO)N1C[C@H](C)[C@@H](CN(C)S(=O)(=O)c2cn(C)cn2)Oc2c(NC(=O)Nc3ccc4c(c3)OCO4)cccc2C1=O,"0.00517 µM [rising, full curve, poor fit]",
CN(c1ccccc1)c1nc(N)c([N+](=O)[O-])c(Nc2ccccc2F)n1,"12.6 µM [rising, single point]",
COc1ccc(CN2CCN(C(=O)CCC(=O)Nc3nnc(C4CCCCC4)s3)CC2)cc1F,"11.2 µM [rising, partial curve]",
O=C(Nc1nnc(C2CC2)s1)c1ccc(Cl)nc1,"16.4 µM [falling, partial curve, poor fit]",
Cc1nc2ccc(S(=O)(=O)Nc3cc(-c4nc5cccnc5s4)ccc3C)cc2s1,,"14.6 µM [falling, partial curve, poor fit]"
Cc1cc(C)cc(C(=O)NCC(=O)OCc2nc(N)nc(Nc3ccccc3C)n2)c1,"25.9 µM [rising, single point]",
Cn1c(CN2CCCCC2)nc2cc(NC(=O)c3ccccc3)ccc21,"20.6 µM [falling, partial curve]",

# As entered above.
# Value for CCOC(=O)CS(=O)(=O)c1nc(-c2ccc(F)cc2)cc(C(F)(F)F)n1 under AC50 [1]: 20.6 µM [falling, partial curve, poor fit]
# Value for Cn1c(N)c(C#N)c2c(c1=S)COC(C)(C)C2 under AC50 [1]: 5.8 µM [rising, single point]

# Going on with the list:

Structure (SMILES),AC50 [1],AC50 [2]
COc1ccc(/C=C2\SC(=S)N(CCCC(=O)NNC(=O)c3ccccc3O)C2=O)cc1,"0.447 µM [falling, full curve]",
CN(Cc1cccc2cnccc12)C(=O)c1cc(COc2ccc(F)cc2F)on1,"14.1 µM [falling, partial curve, poor fit]",
CN(Cc1nnc(-c2ccc(F)cc2)o1)c1ccccc1,"11.2 µM [falling, single point]",
Cc1ccccc1C(=O)NC(=S)Nc1ccc(S(=O)(=O)N2CCN(C)CC2)cc1,"2.91 µM [falling, full curve, poor fit]",
CCN(CC)S(=O)(=O)c1ccc(N=N/C(C(C)=O)=C(/C)O)cc1,"2.59 µM [falling, full curve, poor fit]",
Cc1cccc(N2CCN(C(=O)CSc3nnnn3C3CC3)CC2)c1C,,"5.17 µM [falling, partial curve, poor fit]"
O=C(CN1C(=O)CC(c2ccco2)Sc2ccccc21)Nc1ccccc1F (stereo not drawn),"0.58 µM [falling, full curve, poor fit]",
C=CCNC(=S)Nc1cc(C)ccn1,"35.5 µM [rising, single point]","35.5 µM [falling, single point]"
Cc1ccc(C)c(-n2c3nc(=O)[nH]c(=O)c-3cc3cc([N+](=O)[O-])ccc32)c1,"14.6 µM [rising, partial curve]","8.2 µM [falling, partial curve]"
CC(C)NC(=O)C1CCN(C(=O)N(C)C)CC1,"9.2 µM [rising, partial curve, poor fit]",
CCn1c(=O)c2cc(C(=O)NC(C)C)sc2c2ccccc21,"0.112 µM [rising, full curve, poor fit]",
CC1(C)CC(=O)C(C=N)=C(O)C1,"12.6 µM [rising, single point]",
Cc1c(C)n2c(SCC(=O)N3CCCCCC3)nnc2[nH]c1=O,"0.00461 µM [rising, full curve, poor fit]",
CC1=NNC(=O)C1C(c1ccc(Cl)cc1)C(C#N)C#N (stereo not drawn),"35.5 µM [falling, single point]",
Cc1ccc(S(=O)(=O)N2CCC(C(=O)OCC(=O)N(C)CC(=O)Nc3ccc(F)cc3)CC2)cc1C,"5.8 µM [falling, partial curve, poor fit]",
CCOC(=O)C1Cn2c(nc3c(c2=O)C2(CCCC2)Cc2ccccc2-3)S1 (stereo not drawn),"17.8 µM [falling, single point]",
COc1ccc(Nc2ccnc(Nc3ccc(OC)cc3)n2)cc1,"5.17 µM [falling, full curve, poor fit]",
COc1ccccc1C(=O)NCC(=O)NCCc1ccc(Cl)cc1,"5.62 µM [rising, partial curve, poor fit]",
CCC(=O)OC1(C)C(=O)C2=COC(c3ccc(OC)cc3)=CC2=C(Br)C1=O (stereo not drawn),"11.2 µM [rising, partial curve]",
Cc1cc(C)c2sc(NC(=O)c3ccc(N4C(=O)CCC4=O)cc3)nc2c1,"0.631 µM [falling, full curve, poor fit]",
COC(=O)Cn1nnc2c(cnn2-c2ccccc2)c1=O,"3.98 µM [rising, full curve]",

# Reference: PubChem BioAssay AID493014 (National Center for Advancing Translational Sciences (NCATS), 2011)
